Results published in the supplement of paper PMC10849652.
This is one part of the list.

The chains behind the UniProt entries cited, without tags or fusion partners. Where a name states a change or a piece, a line headed by the entry shows the natural chain unless it says otherwise.
UniProt Q92922, whole entry, looked up: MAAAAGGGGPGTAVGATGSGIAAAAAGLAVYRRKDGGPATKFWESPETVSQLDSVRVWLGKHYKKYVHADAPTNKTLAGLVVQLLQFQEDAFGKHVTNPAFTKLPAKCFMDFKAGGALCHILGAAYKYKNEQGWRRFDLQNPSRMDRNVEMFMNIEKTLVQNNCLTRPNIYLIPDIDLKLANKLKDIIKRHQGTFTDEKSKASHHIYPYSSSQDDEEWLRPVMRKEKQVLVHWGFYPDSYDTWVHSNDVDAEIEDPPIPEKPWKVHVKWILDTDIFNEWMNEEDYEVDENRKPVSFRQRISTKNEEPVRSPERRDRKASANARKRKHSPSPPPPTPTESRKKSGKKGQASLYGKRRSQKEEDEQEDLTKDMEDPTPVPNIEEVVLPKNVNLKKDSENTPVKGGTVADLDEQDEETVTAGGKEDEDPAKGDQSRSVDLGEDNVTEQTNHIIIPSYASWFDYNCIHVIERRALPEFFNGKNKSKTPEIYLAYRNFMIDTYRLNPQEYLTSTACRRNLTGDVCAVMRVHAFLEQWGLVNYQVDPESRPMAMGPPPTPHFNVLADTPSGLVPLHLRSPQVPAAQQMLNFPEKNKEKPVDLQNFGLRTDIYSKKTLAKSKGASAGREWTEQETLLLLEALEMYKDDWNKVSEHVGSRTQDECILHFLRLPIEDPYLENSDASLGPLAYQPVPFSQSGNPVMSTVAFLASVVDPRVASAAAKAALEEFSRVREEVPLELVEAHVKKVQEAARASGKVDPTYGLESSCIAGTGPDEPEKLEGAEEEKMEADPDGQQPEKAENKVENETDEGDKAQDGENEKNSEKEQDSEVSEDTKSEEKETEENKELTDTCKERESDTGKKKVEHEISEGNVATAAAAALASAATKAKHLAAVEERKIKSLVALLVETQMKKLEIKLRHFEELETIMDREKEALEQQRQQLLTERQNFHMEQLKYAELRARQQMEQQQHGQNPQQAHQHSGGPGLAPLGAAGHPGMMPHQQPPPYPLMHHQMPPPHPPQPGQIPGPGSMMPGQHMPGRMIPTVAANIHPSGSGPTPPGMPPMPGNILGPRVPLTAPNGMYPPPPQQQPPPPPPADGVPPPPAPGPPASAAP
UniProt P52788: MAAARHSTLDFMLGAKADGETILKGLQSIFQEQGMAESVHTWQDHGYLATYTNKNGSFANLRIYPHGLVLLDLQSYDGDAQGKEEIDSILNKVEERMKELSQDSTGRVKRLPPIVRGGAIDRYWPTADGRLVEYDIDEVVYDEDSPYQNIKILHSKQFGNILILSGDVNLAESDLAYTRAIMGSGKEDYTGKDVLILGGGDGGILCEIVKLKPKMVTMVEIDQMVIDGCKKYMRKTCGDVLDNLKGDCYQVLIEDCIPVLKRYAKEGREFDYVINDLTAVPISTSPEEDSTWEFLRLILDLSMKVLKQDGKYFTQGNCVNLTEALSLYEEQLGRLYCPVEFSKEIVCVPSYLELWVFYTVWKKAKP
UniProt Q96EX1: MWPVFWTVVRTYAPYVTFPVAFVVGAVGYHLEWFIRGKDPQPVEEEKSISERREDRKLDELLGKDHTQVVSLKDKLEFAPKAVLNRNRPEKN
UniProt P62304, whole entry, looked up: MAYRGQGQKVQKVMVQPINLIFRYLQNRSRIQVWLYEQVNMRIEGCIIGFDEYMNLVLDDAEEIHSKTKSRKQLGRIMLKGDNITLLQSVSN
UniProt Q15599: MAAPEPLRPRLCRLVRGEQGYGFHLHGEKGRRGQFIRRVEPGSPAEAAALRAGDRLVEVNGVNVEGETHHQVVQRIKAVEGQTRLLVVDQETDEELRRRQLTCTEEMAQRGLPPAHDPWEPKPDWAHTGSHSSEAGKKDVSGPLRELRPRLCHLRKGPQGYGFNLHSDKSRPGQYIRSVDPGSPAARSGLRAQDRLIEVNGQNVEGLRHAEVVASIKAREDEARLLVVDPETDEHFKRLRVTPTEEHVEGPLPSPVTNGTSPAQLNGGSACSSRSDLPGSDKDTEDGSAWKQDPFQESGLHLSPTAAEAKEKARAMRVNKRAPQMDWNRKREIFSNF
UniProt P0C7P3: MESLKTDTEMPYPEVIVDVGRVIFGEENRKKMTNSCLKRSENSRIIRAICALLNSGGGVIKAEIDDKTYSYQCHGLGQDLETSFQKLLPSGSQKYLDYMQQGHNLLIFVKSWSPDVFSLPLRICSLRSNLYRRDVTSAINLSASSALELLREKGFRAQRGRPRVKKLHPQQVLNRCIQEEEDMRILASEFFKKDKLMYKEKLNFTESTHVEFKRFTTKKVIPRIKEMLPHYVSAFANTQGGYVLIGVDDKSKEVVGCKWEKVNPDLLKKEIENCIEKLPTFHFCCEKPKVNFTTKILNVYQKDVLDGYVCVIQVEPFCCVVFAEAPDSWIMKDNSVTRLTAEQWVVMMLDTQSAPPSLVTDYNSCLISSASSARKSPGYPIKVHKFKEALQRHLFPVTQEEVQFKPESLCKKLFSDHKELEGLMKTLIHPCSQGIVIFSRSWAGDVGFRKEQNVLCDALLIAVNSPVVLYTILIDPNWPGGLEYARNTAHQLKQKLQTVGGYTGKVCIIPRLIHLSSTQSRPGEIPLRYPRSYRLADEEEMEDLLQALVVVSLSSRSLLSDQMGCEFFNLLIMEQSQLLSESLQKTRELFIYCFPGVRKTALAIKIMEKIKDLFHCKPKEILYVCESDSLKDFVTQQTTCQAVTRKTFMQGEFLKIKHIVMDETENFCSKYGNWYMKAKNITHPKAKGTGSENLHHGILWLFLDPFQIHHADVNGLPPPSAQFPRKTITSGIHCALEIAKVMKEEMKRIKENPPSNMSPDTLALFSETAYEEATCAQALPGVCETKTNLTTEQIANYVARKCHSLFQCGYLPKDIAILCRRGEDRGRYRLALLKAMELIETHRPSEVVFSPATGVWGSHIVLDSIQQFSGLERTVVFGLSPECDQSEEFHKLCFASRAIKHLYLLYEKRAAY
UniProt Q8ND04: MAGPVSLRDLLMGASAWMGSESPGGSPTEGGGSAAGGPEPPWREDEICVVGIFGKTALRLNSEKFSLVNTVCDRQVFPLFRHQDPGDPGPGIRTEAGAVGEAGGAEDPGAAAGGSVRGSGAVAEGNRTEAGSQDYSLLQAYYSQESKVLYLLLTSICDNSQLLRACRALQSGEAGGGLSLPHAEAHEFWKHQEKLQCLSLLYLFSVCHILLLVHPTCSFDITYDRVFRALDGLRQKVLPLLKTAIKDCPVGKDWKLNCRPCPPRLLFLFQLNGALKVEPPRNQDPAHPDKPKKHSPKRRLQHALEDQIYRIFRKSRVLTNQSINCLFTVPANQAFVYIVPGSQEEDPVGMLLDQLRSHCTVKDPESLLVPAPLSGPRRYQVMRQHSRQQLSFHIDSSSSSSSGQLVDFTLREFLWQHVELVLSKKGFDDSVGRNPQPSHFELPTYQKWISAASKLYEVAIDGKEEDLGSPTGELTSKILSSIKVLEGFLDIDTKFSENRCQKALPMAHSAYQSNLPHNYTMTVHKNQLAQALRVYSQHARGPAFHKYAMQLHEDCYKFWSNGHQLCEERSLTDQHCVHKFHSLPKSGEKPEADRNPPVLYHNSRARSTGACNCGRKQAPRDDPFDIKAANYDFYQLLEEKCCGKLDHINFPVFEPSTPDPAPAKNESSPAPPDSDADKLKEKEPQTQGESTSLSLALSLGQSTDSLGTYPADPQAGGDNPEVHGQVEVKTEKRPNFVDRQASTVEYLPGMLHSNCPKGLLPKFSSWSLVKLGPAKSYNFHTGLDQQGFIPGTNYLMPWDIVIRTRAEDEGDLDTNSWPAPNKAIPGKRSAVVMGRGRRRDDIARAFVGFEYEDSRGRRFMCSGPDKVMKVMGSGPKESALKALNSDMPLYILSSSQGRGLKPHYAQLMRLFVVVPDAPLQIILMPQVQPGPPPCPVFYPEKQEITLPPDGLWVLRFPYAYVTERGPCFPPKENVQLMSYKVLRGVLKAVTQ
UniProt Q96H20: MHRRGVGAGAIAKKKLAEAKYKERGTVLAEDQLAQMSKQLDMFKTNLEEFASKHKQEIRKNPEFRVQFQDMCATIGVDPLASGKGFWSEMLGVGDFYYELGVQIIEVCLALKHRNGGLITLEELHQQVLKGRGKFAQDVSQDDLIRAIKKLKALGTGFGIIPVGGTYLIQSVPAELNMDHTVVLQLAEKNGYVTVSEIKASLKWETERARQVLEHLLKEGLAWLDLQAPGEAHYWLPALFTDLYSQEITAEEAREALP
UniProt Q15506: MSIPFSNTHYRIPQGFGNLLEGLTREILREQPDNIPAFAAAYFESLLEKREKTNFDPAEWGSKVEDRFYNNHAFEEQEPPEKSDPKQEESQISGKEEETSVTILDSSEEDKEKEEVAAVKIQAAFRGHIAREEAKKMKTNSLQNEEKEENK
UniProt P00441, whole entry, looked up: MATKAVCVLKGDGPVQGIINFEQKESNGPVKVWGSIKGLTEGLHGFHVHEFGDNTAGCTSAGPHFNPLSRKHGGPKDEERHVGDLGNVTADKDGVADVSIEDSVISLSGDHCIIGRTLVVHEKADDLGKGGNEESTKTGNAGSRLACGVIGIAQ
UniProt P62306, whole entry, looked up: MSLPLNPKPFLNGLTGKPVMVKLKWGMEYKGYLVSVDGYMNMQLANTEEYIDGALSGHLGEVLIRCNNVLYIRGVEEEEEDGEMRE
UniProt O95295: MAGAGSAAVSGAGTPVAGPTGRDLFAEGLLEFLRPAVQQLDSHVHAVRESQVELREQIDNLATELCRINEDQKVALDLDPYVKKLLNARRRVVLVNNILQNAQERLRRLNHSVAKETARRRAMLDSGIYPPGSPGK
UniProt Q16637, whole entry, looked up: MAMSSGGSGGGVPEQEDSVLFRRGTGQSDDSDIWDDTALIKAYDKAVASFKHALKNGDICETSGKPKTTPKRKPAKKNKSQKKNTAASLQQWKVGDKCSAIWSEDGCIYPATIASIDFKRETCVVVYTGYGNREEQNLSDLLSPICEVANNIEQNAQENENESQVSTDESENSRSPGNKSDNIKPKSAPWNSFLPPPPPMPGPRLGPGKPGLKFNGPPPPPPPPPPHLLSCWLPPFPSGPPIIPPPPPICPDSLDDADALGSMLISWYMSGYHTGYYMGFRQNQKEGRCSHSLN
UniProt Q9BX66: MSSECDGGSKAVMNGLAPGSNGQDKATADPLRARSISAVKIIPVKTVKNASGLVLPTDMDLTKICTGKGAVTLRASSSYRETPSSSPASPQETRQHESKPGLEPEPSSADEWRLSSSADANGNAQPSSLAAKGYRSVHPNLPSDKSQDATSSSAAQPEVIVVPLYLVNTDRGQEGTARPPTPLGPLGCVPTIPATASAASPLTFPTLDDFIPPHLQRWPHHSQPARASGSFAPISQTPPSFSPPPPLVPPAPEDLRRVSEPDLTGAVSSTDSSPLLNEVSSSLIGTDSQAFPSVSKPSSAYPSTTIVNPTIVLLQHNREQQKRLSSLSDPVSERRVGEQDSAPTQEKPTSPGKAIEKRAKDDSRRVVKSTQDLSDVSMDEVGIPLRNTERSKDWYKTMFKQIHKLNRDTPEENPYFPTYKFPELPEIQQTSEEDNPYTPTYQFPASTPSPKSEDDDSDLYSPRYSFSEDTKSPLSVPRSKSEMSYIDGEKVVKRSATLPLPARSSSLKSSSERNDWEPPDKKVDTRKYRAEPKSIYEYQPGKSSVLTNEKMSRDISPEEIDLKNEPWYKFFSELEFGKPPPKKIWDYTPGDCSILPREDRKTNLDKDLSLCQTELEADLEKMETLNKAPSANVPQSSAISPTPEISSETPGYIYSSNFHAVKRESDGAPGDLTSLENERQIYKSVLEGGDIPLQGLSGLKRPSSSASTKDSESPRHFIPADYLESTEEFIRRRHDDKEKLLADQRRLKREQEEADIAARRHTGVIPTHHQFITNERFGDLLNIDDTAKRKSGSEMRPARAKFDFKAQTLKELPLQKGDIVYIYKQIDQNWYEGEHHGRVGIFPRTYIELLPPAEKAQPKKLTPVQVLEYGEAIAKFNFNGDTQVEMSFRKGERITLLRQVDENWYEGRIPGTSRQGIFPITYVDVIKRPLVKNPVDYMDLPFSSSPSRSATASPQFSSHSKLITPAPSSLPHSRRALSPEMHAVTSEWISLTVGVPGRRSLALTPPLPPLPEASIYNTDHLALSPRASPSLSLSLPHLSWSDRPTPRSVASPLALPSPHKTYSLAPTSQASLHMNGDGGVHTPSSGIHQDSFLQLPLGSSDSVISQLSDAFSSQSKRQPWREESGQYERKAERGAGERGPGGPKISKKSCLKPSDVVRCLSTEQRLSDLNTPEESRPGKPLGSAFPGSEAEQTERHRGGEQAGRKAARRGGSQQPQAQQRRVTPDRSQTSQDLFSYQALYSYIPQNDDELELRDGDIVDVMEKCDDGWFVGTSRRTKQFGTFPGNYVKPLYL

Legend:
Experiment in all cases: log2 fold change, soluble protein after heating vs DMSO (PISA); higher = thermal stabilisation; K562 cells, 10 uM, 30 min; active = over 0.2 and 3.5 SD of the protein, either way, in both replicates (recomputed)
[1] = compound: CS(=O)(=O)c1ccc(-c2cnc(N)c(C(=O)Nc3ccccc3)n2)cc1
Procedure, shortened: (§1)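 K562 cells at 2×10^6 cells/mL were exposed to 10 μM compound for 30 min, then aliquots were heated for 3 min across 48°C-58°C, pooled, and extracted in PBS containing 0.5% NP-40 at 4°C. The supernatant after 21,000xg for 90 min was taken as soluble protein and measured by TMTpro 16plex LC-MS/MS with channel sums equalised. Thermal stability is reported relative to control samples, with values from duplicates. Fold changes are given on a log2 scale.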

crizotinib = compound: C[C@@H](Oc1cc(-c2cnn(C3CCNCC3)c2)cnc1N)c1c(Cl)ccc(F)c1Cl [crizotinib]
Procedure, shortened: as §1

[2] = compound: C[C@@H]1COCCN1C2=NC(=NC(=C2)C3(CC3)S(=O)(=O)C)C4=C5C=CNC5=CC=C4
Procedure, shortened: as §1

[3] = compound: C[C@H](C1=CC=C(C=C1)C(=O)NC2=C3C=CNC3=NC=C2)N
Procedure, shortened: as §1

duvelisib = compound: C[C@H](Nc1ncnc2nc[nH]c12)c1cc2cccc(Cl)c2c(=O)n1-c1ccccc1 [duvelisib]
Procedure, shortened: as §1

gandotinib = compound: Cc1cc(Nc2cc(CN3CCOCC3)c3nc(C)c(Cc4ccc(Cl)cc4F)n3n2)n[nH]1 [gandotinib]
Procedure, shortened: as §1

tozasertib = compound: Cc1cc(Nc2cc(N3CCN(C)CC3)nc(Sc3ccc(NC(=O)C4CC4)cc3)n2)n[nH]1 [tozasertib]
Procedure, shortened: as §1

[4] = compound: Cc1cc(SCc2sc(-c3ccc(C(F)(F)F)cc3)nc2C)ccc1OCC(=O)O
Procedure, shortened: as §1

doramapimod = compound: Cc1ccc(-n2nc(C(C)(C)C)cc2NC(=O)Nc2ccc(OCCN3CCOCC3)c3ccccc23)cc1 [doramapimod]
Procedure, shortened: as §1

ispinesib = compound: Cc1ccc(C(=O)N(CCCN)[C@@H](c2nc3cc(Cl)ccc3c(=O)n2Cc2ccccc2)C(C)C)cc1 [ispinesib]
Procedure, shortened: as §1

bafetinib = compound: Cc1ccc(NC(=O)c2ccc(CN3CC[C@H](N(C)C)C3)c(C(F)(F)F)c2)cc1Nc1nccc(-c2cncnc2)n1 [bafetinib]
Procedure, shortened: as §1

[5] = compound: Cc1cccc(CC(=O)N2CCc3c2ccc(-c2cn(C)c4ncnc(N)c24)c3F)n1
Procedure, shortened: as §1

nilotinib = compound: Cc1cn(-c2cc(NC(=O)c3ccc(C)c(Nc4nccc(-c5cccnc5)n4)c3)cc(C(F)(F)F)c2)cn1 [nilotinib]
Procedure, shortened: as §1

[6] = compound: Cc1nc(Nc2n[nH]c3c2CN(C(=O)N[C@H](CN(C)C)c2ccccc2)C3(C)C)c2sccc2n1
Procedure, shortened: as §1

dasatinib = compound: Cc1nc(Nc2ncc(C(=O)Nc3c(C)cccc3Cl)s2)cc(N2CCN(CCO)CC2)n1 [dasatinib]
Procedure, shortened: as §1

[7] = compound: Cc1ncc(-c2ccnc(Nc3ccc(S(C)(=O)=O)cc3)n2)n1C(C)C
Procedure, shortened: as §1

[8] = compound: Cn1cc(-c2ccc3c(c2)CCN3C(=O)Cc2cccc(C(F)(F)F)c2)c2c(N)ncnc21
Procedure, shortened: as §1

[9] = compound: Cn1cc(-c2ccc3nnc(C(F)(F)c4ccc5ncccc5c4)n3n2)cn1
Procedure, shortened: as §1

tipifarnib = compound: Cn1cncc1[C@@](N)(c1ccc(Cl)cc1)c1ccc2c(c1)c(-c1cccc(Cl)c1)cc(=O)n2C [tipifarnib]
Procedure, shortened: as §1

mubritinib = compound: FC(F)(F)c1ccc(/C=C/c2nc(COc3ccc(CCCCn4ccnn4)cc3)co2)cc1 [mubritinib]
Procedure, shortened: as §1

Measured: log2 fold change

SMARCC1 (UniProt Q92922)
inactive: [1] -0.022 | crizotinib -0.096 | [2] 0.027 | [3] 0.055 | duvelisib -0.016 | gandotinib 0.047 | tozasertib 0.023 | [4] 0.098 | doramapimod 0.059 | ispinesib -0.048 | bafetinib -0.003 | [5] 0.03 | nilotinib -0.137 | [6] 0.106 | dasatinib -0.125 | [7] 0.014 | [8] -0.005 | [9] 0.07 | tipifarnib -0.093 | mubritinib 0.12

SMS (UniProt P52788)
inactive: [1] 0.024 | crizotinib 0.012 | [2] 0.092 | [3] -0.056 | duvelisib 0.045 | gandotinib 0.01 | tozasertib -0.033 | [4] -0.04 | doramapimod -0.083 | ispinesib 0.041 | bafetinib -0.053 | [5] -0.04 | nilotinib 0.018 | [6] 0.013 | dasatinib 0.015 | [7] -0.013 | [8] 0.019 | [9] -0.006 | tipifarnib -0.015 | mubritinib 0.042

SMIM12 (UniProt Q96EX1)
inactive: [1] 0.038 | crizotinib 0.127 | [2] 0.043 | [3] -0.068 | duvelisib 0.067 | gandotinib -0.033 | tozasertib -0.061 | [4] 0.002 | doramapimod -0.04 | ispinesib -0.056 | bafetinib -0.155 | [5] -0.025 | nilotinib 0.03 | [6] -0.018 | dasatinib -0.012 | [7] -0.004 | [8] 0.162 | [9] 0.077 | tipifarnib 0.024 | mubritinib 0.072

SNRPE (UniProt P62304)
inactive: [1] -0.059 | crizotinib 0.05 | [2] 0.016 | [3] 0.061 | duvelisib 0.019 | gandotinib -0.017 | tozasertib -0.021 | [4] -0.036 | doramapimod 0.03 | ispinesib 0.052 | bafetinib -0.02 | [5] -0.03 | nilotinib -0.009 | [6] -0.02 | dasatinib 0.084 | [7] 0.032 | [8] -0.029 | [9] -0.002 | tipifarnib 0.026 | mubritinib 0.006

SLC9A3R2 (UniProt Q15599)
inactive: [1] -0.047 | crizotinib 0 | [2] -0.005 | [3] -0.042 | duvelisib -0.018 | gandotinib -0.016 | tozasertib -0.026 | [4] -0.012 | doramapimod 0.031 | ispinesib 0.043 | bafetinib -0.031 | [5] -0.009 | nilotinib 0.014 | [6] -0.057 | dasatinib -0.02 | [7] 0.009 | [8] 0.002 | [9] 0.012 | tipifarnib 0.006 | mubritinib 0.024

SLFN14 (UniProt P0C7P3)
inactive: [1] 0.012 | crizotinib 0.261 | [2] 0.303 | [3] 0.162 | duvelisib -0.427 | gandotinib 0.053 | tozasertib -0.11 | [4] 0.263 | doramapimod -0.004 | ispinesib -0.203 | bafetinib -0.047 | [5] -0.059 | nilotinib -0.057 | [6] -0.192 | dasatinib 0.055 | [7] 0.069 | [8] 0.22 | [9] 0.054 | tipifarnib 0.02 | mubritinib 0.052

SMC3 (UniProt Q9UQE7)
inactive: [1] 0.001 | crizotinib 0.021 | [2] 0.051 | [3] -0.077 | duvelisib 0.04 | gandotinib -0.011 | tozasertib 0.006 | [4] -0.021 | doramapimod -0.015 | ispinesib 0.027 | bafetinib 0.026 | [5] 0.022 | nilotinib 0.024 | [6] -0.097 | dasatinib -0.045 | [7] -0.047 | [8] 0.02 | [9] 0.008 | tipifarnib 0.021 | mubritinib 0.025

SNX17 (UniProt Q15036)
inactive: [1] -0.013 | crizotinib -0.063 | [2] -0.055 | [3] 0.086 | duvelisib 0.018 | gandotinib -0.091 | tozasertib -0.272 | [4] 0.044 | doramapimod -0.043 | ispinesib -0.108 | bafetinib 0.128 | [5] -0.031 | nilotinib -0.116 | [6] 0.129 | dasatinib -0.106 | [7] -0.039 | [8] 0.114 | [9] -0.02 | tipifarnib 0.013

SMG8 isoform 2 (UniProt Q8ND04)
inactive: [1] 0.056 | crizotinib -0.002 | [2] -0.232 | [3] 0.114 | duvelisib -0.155 | gandotinib 0.057 | tozasertib -0.05 | [4] 0.142 | doramapimod 0.126 | ispinesib -0.129 | bafetinib 0.091 | [5] 0.096 | nilotinib -0.001 | [6] -0.028 | dasatinib -0.013 | [7] -0.031 | [8] -0.033 | [9] 0.012 | tipifarnib -0.023

SNF8 (UniProt Q96H20)
inactive: [1] 0.002 | crizotinib 0.037 | [2] 0.061 | [3] -0.018 | duvelisib -0.02 | gandotinib 0.04 | tozasertib -0.032 | [4] -0.093 | doramapimod -0.044 | ispinesib 0.062 | bafetinib -0.151 | [5] 0.04 | nilotinib 0.014 | [6] -0.033 | dasatinib 0.006 | [7] -0.009 | [8] 0.001 | [9] -0.004 | tipifarnib 0.059 | mubritinib 0.025

SPA17 (UniProt Q15506)
inactive: [1] 0.118 | crizotinib 0.031 | [2] -0.126 | [3] 0.033 | duvelisib 0.018 | gandotinib -0.136 | tozasertib 0.027 | [4] -0.053 | doramapimod -0.038 | ispinesib -0.084 | bafetinib -0.063 | [5] 0.021 | nilotinib -0.01 | [6] 0.03 | dasatinib 0.059 | [7] 0.004 | [8] -0.119 | [9] 0.045 | tipifarnib 0.045 | mubritinib 0.073

SOD1 (UniProt P00441)
inactive: [1] 0.018 | crizotinib 0.137 | [2] 0.125 | [3] 0.026 | duvelisib 0 | gandotinib -0.01 | tozasertib 0.085 | [4] -0.028 | doramapimod 0.087 | ispinesib -0.029 | bafetinib -0.003 | [5] -0.033 | nilotinib -0.008 | [6] -0.002 | dasatinib 0.017 | [7] 0.008 | [8] -0.067 | [9] 0.03 | tipifarnib -0.002 | mubritinib 0.04

SNRPF (UniProt P62306)
inactive: [1] -0.044 | crizotinib -0.072 | [2] -0.226 | [3] -0.149 | duvelisib -0.219 | gandotinib 0.053 | tozasertib 0.02 | [4] 0.018 | doramapimod -0.193 | ispinesib 0.134 | bafetinib -0.026 | [5] 0.085 | nilotinib 0.084 | [6] -0.006 | dasatinib 0.062 | [7] 0.035 | [8] -0.134 | [9] -0.122 | tipifarnib 0.01 | mubritinib -0.015

SNAPIN (UniProt O95295)
inactive: [1] -0.026 | crizotinib 0.049 | [2] 0.207 | [3] -0.034 | duvelisib 0.049 | gandotinib -0.002 | tozasertib 0.035 | [4] 0.014 | doramapimod 0.086 | ispinesib -0.011 | bafetinib -0.031 | [5] 0 | nilotinib -0.035 | [6] -0.014 | dasatinib -0.024 | [7] 0.01 | [8] 0.036 | [9] 0.096 | tipifarnib 0.035 | mubritinib 0.011

SMN1 (UniProt Q16637)
inactive: [1] -0.089 | crizotinib -0.08 | [2] -0.039 | [3] 0.29 | duvelisib -0.146 | gandotinib 0.129 | tozasertib -0.001 | [4] 0.052 | doramapimod 0.02 | ispinesib -0.042 | bafetinib 0.179 | [5] 0.04 | nilotinib 0.025 | [6] -0.151 | dasatinib -0.034 | [7] -0.013 | [8] -0.122 | [9] -0.024 | tipifarnib -0.041 | mubritinib 0.06

SORBS1 isoform 12 (UniProt Q9BX66)
inactive: [1] 0.001 | crizotinib 0.01 | [2] 0.022 | [3] -0.029 | duvelisib 0 | gandotinib -0.058 | tozasertib -0.075 | [4] -0.024 | doramapimod -0.013 | ispinesib -0.007 | bafetinib -0.065 | [5] -0.117 | nilotinib 0.036 | [6] -0.098 | dasatinib -0.02 | [7] -0.025 | [8] 0.073 | [9] -0.009 | tipifarnib 0.047 | mubritinib 0.024
